Data published in patent publication US8742167B2, “Therapeutic formulations based on asiatic acid and selected salts thereof” (Shanghai Institute of Pharmaceutical Industry, priority 2008, dated 2014).

System: bleomycin-induced pulmonary fibrosis in rats
Assay: Lung weight index of bleomycin-induced pulmonary fibrosis in rats
Format: in vivo, SD rats
Settings: body weight
Procedure: Male SD rats, body weight 250-300 g. The animals were anesthetized with 3% seconal, laid flat and fixed onto the operating table. The necks of the animals were disinfected with alcohol and cut to expose tracheae. A needle was inserted via the space between tracheal rings centripetally, and 5 mg/kg of bleomycin was injected. The rats were kept upright and rotated, in order to keep the solution uniformly distributed in the lungs. Then the incisions were sutured.
After the rats regained consciousness, they were randomly grouped. The animals were divided into (i) a group receiving administration on the next day after establishing the model and (ii) a group receiving administration at 7 days after the model was established. Included were 27, 9, and 3 mg/kg p.o.×28 d asiatic acid groups, 0.6 mg/kg p.o.×28 d dexamethasone group, 36 mg/kg p.o.×28 d asiaticoside group, model group, and blank group. Normal saline was administered for the model and blank groups. On the 28th day after asiatic acid and asiaticoside administration, survival and weight ratio of lungs were measured; pathological examination and serological examination were performed.
Effect of on lung weight index of bleomycin-induced pulmonary fibrosis in rats treated with asiatic acid Body weight and lung weight were measured after the rats were sacrificed. Lung weight ratio=(lung weight/body weight)×100%.

Structure (SMILES) | weight (g) X ± SD (asiatic acid 3 mg/kg, 28-day administration started 7 day after model established) | weight (g) X ± SD (asiatic acid 3 mg/kg, 28-day administration started from the second day) | weight (g) X ± SD (asiatic acid 9 mg/kg, 28-day administration started 7 day after model established) | weight (g) X ± SD (asiatic acid 9 mg/kg, 28-day administration started from the second day) | weight (g) X ± SD (asiatic acid 27 mg/kg, 28-day administration started 7 day after model established) | weight (g) X ± SD (asiatic acid 27 mg/kg, 28-day administration started from the second day) | weight (g) X ± SD (asiaticoside 36 mg/kg, 28-day administration started 7 day after model established) | weight (g) X ± SD (asiaticoside 36 mg/kg, 28-day administration started from the second day)
C[C@H]1[C@H](C)CC[C@]2(C(=O)O)CC[C@]3(C)C(=CC[C@@H]4[C@@]5(C)C[C@@H](O)[C@H](O)[C@@](C)(CO)[C@@H]5CC[C@]43C)[C@H]12 [Asiatic acid, asiatic acid] | 317.70 ± 44.19 g | 328.33 ± 31.64 g | 329.30 ± 30.54 g | 316.80 ± 49.73 g | 343.30 ± 49.57 g | 347.8 ± 59.3 g | – | –
C[C@H]1[C@H](C)CC[C@]2(C(=O)O[C@@H]3O[C@H](CO[C@@H]4O[C@H](CO)[C@@H](O[C@@H]5O[C@H](C)[C@H](O)[C@@H](O)[C@H]5O)[C@H](O)[C@H]4O)[C@@H](O)[C@H](O)[C@H]3O)CC[C@]3(C)C(=CC[C@@H]4[C@@]5(C)C[C@@H](O)[C@H](O)[C@@](C)(CO)[C@@H]5CC[C@]43C)[C@H]12 [Asiaticoside, asiaticoside] | – | – | – | – | – | – | 324.60 ± 44.06 g | 311.30 ± 28.76 g
